Experimental data as given in publication PMC6603201.
These are yes or no findings as the source states them, for the method shown. Binding can be weak; no strength is given.

Key:
Experiment in all cases: SPR; CBP-FLAG immobilised by amine coupling on a CM5 chip (300-400 RU, 10 mM sodium acetate pH 4.5); serial dilutions of mouse chemokine flowed in triplicate for 3 min, 10 min dissociation; 25°C; HBS-EP buffer (20 mM HEPES, 150 mM NaCl, 3.4 mM EDTA, 0.005% Polysorbate 20, pH 7.4); Biacore X100; global fit with a 1:1 binding model; both purified
[1] = molecular target: PVNZ112.0-CBP (Parapoxvirus of red deer in New Zealand (PVNZ), strain RD86)
[2] = molecular target: PVNZ112.6-CBP (Parapoxvirus of red deer in New Zealand (PVNZ), strain RD86)
[3] = molecular target: PVNZ112.3-CBP (Parapoxvirus of red deer in New Zealand (PVNZ), strain RD86)

B1: recombinant mouse CCL19 (ligand, UniProt O70460 26-108)
chain: GANDAEDCCLSVTQRPIPGNIVKAFRYLLNEDGCRVPAVVFTTLRGYQLCAPPDQPWVDRIIRRLKKSSAKNKGNSTRRSPVS
binding [1]: binds weakly

B2: recombinant mouse CXCL1 (ligand, UniProt P12850 25-96)
chain: APIANELRCQCLQTMAGIHLKNIQSLKVLPSGPHCTQTEVIATLKNGREACLDPEAPLVQKIVQKMLKGVPK
binding [2]: binds weakly

B3: recombinant mouse CCL22 (ligand, UniProt O88430 25-92)
chain: GPYGANVEDSICCQDYIRHPLPSRLVKEFFWTSKSCRKPGVVLITVKNRDICADPRQVWVKKLLHKLS
binding [3]: no binding
binding [1]: binds weakly

B4: recombinant mouse CXCL2 (ligand, UniProt P10889 28-100)
chain: AVVASELRCQCLKTLPRVDFKNIQSLSVTPPGPHCAQTEVIATLKGGQKVCLDPEAPLVQKIIQKILNKGKAN
binding [2]: binds weakly

B5: recombinant mouse XCL1 (ligand, UniProt P47993 22-114)
chain: VGTEVLEESSCVNLQTQRLPVQKIKTYIIWEGAMRAVIFVTKRGLKICADPEAKWVKAAIKTVDGRASTRKNMAETVPTGAQRSTSTAITLTG
binding [3]: binds weakly
binding [2]: binds weakly

B6: recombinant mouse CX3CL1 (ligand, UniProt O35188 25-336)
chain: QHLGMTKCEIMCDKMTSRIPVALLIRYQLNQESCGKRAIVLETTQHRRFCADPKEKWVQDAMKHLDHQAAALTKNGGKFEKRVDNVTPGITLATRGLSPSALTKPESATLEDLALELTTISQEARGTMGTSQEPPAAVTGSSLSTSEAQDAGLTAKPQSIGSFEAADISTTVWPSPAVYQSGSSSWAEEKATESPSTTAPSPQVSTTSPSTPEENVGSEGQPPWVQGQDLSPEKSLGSEEINPVHTDNFQERGPGNTVHPSVAPISSEETPSPELVASGSQAPKIEEPIHATADPQKLSVLITPVPDTQAAT
binding [3]: binds weakly
binding [2]: no binding
binding [1]: no binding
